Values of other authors in patent US5981777A, “Recovery of taxanes from plant material” (The Regents of the University of California, priority 1997, dated 1999).

Conditions: in words; cited from earlier work

In the case of `CC(=O)O[C@H]1C(=O)[C@@]2(C)[C@H]([C@H](OC(=O)c3ccccc3)[C@]3(O)C[C@H](OC(=O)[C@H](O)[C@@H](NC(=O)c4ccccc4)c4ccccc4)C(C)=C1C3(C)C)[C@]1(OC(C)=O)CO[C@@H]1C[C@@H]2O` [Taxol ® (paclitaxel), paclitaxel], the “solubility in aqueous solutions” value is given as “relatively insoluble”.
